Data from paper doi:10.1101/2025.09.18.676964.

Molecular target: purified KhpB protein (Deinococcus radiodurans) (UniProt Q9RXR1)
Assay: SEC

binding: binds
Substance: purified KhpA protein (from UniProt Q9RSW2)

Results are given in words; binding and its absence hold for the method and conditions named. Binding calls can cover weak binding; strength is not graded here.
